Values from PubChem BioAssay AID504804 (Drosophila RNAi Screening Center, 2011)
The screen tested about 19,000 reagents; shown is an unselected part of those that have a named target and a result. In the full data, 47 (0.25%) were called active. 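Signals are raw, not normalised; exact z-scores behind calls not deposited; actives needed confirmation, so some wells reaching 2 SD are inactive.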 Reagents against one gene are numbered here. A plus sign joins genes that one reagent is predicted to hit.

- Assay: 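Knock-downs shielding fly cells from apoptosis caused by DNA damage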 (primary screen)
- System: Drosophila Kc cells
- Knock-down reagent: long dsRNA against Drosophila genes, 0.5 µg dsRNA per well
- Timing: 96 h (48 h knock-down, then 48 h drug)
- Treatment: doxorubicin 5 µg/ml for 48 h, added 48 h after dsRNA
- Detection: 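Viability measured as cellular ATP by luminescence after 48 h knock-down then 48 h doxorubicin at 5 µg/ml; unnormalised plate counts for each replicate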
- Direction: raw ATP luminescence: higher = more viable cells, protection from doxorubicin
- Hit rule: 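Active when both duplicate wells lie at least 2 SD above the plate mean and protection is confirmed by rescreening and independent dsRNAs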

| Target gene | dsRNA no. | raw ATP luminescence, replicate 1 | raw ATP luminescence, replicate 2 | Outcome |
| --- | --- | --- | --- | --- |
| CG8728 (GeneID 35748) | 1 | 63290 | 47100 | inactive |
| CG10555 (GeneID 31771) | 1 | 21370 | 26290 | inactive |
| mRRF1 (GeneID 39067) | 1 | 34307 | 42627 | inactive |
| CG7341 (GeneID 40004) | 1 | 35020 | 32793 | inactive |
| CG17193 (GeneID 50044) | 1 | 43680 | 23660 | inactive |
| CG2528 (GeneID 35435) | 1 | 51140 | 47130 | inactive |
| Yp3 (GeneID 32339) | 1 | 2.26e5 | 2.73e5 | inactive |
| CG42726 + CG42727 | 1 | 33527 | 22173 | inactive |
| upd2 (GeneID 32805) | 1 | 3.63e5 | 2.82e5 | inactive |
| CG11585 (GeneID 32365) | 1 | 4.16e5 | 3.72e5 | inactive |
| SMC6 (GeneID 42876) | 1 | 96610 | 91110 | inactive |
| CG31249 (GeneID 42129) | 1 | 44790 | 33140 | inactive |
| lmd (GeneID 42717) | 1 | 25350 | 25690 | inactive |
| CG2772 (GeneID 33559) | 1 | 26167 | 35657 | inactive |
| Vsx2 (GeneID 31469) | 1 | 1.79e5 | 1.66e5 | inactive |
| Vsx2 (GeneID 31469) | 2 | 16190 | 22170 | inactive |
| Vsx2 (GeneID 31469) | 3 | 26160 | 42480 | inactive |
| Vsx2 (GeneID 31469) | 4 | 23960 | 35580 | inactive |
| Spp (GeneID 33227) | 1 | 1.16e5 | 83890 | inactive |
| Fer3HCH (GeneID 32260) | 1 | 3.40e5 | 3.08e5 | inactive |
| CG8272 (GeneID 35875) | 1 | 51363 | 45243 | inactive |
| CG32249 (GeneID 317939) | 1 | 1.57e5 | 29670 | inactive |
| CG32249 (GeneID 317939) | 2 | 73307 | 77163 | inactive |
| snk (GeneID 41607) | 1 | 81630 | 48940 | inactive |
| CG9503 (GeneID 32424) | 1 | 4.05e5 | 3.21e5 | inactive |
| CG32845 (GeneID 318243) | 1 | 1.66e5 | 1.42e5 | inactive |
| Tgt (GeneID 33307) | 1 | 98887 | 71013 | inactive |
| CG16904 (GeneID 41212) | 1 | 48743 | 33270 | inactive |
| CG10631 (GeneID 35262) | 1 | 92840 | 64507 | inactive |
| CG13403 (GeneID 32366) | 1 | 3.74e5 | 3.38e5 | inactive |
| CG34342 (GeneID 5740152) | 1 | 61333 | 70403 | inactive |
| DNaseII (GeneID 48228) | 1 | 39257 | 43930 | inactive |
| smal (GeneID 5740323) | 1 | 25167 | 29720 | inactive |
| smal (GeneID 5740323) | 2 | 23963 | 35973 | inactive |
| smal (GeneID 5740323) | 3 | 26577 | 33740 | inactive |
| smal (GeneID 5740323) | 4 | 31817 | 35693 | inactive |
| CG3199 (GeneID 41725) | 1 | 1.34e5 | 60820 | inactive |
| Mink (GeneID 42982) | 1 | 38117 | 41880 | inactive |
| CG14634 (GeneID 50366) | 1 | 61810 | 48020 | inactive |

Records above whose target name starts with M or m (2):
| Target gene | dsRNA no. | raw ATP luminescence, replicate 1 | raw ATP luminescence, replicate 2 | Outcome |
| --- | --- | --- | --- | --- |
| mRRF1 (GeneID 39067) | 1 | 34307 | 42627 | inactive |
| Mink (GeneID 42982) | 1 | 38117 | 41880 | inactive |

Additional records:
| Target gene | dsRNA no. | raw ATP luminescence, replicate 1 | raw ATP luminescence, replicate 2 | Outcome |
| --- | --- | --- | --- | --- |
| CG7402 (GeneID 39994) | 1 | 49343 | 47603 | inactive |
| cerv (GeneID 32492) | 1 | 3.67e5 | 3.09e5 | inactive |
| Hsp67Ba (GeneID 39076) | 1 | 75123 | 62697 | inactive |
| teq (GeneID 39048) | 1 | 73663 | 70590 | inactive |
| teq (GeneID 39048) | 2 | 54557 | 73253 | inactive |
| teq (GeneID 39048) | 3 | 65043 | 71553 | inactive |
| CG6106 (GeneID 32816) | 1 | 3.26e5 | 3.14e5 | inactive |
| CG5026 (GeneID 39026) | 1 | 41493 | 41607 | inactive |
| CARPA (GeneID 31687) | 1 | 42240 | 41890 | inactive |
| CG11811 (GeneID 39213) | 1 | 79457 | 61327 | inactive |
| jet (GeneID 33705) | 1 | 1.14e5 | 73653 | inactive |
| Pstk + CG14210 + Tim9b | 1 | 3.21e5 | 2.77e5 | inactive |
| Jhbp2 (GeneID 40612) | 1 | 53917 | 50130 | inactive |
| pdgy (GeneID 32426) | 1 | 2.59e5 | 2.59e5 | inactive |
| CG14089 (GeneID 40101) | 1 | 60390 | 54497 | inactive |
| stan (GeneID 36125) | 1 | 35900 | 32453 | inactive |
| stan (GeneID 36125) | 2 | 37940 | 69277 | inactive |
| CG10516 (GeneID 39738) | 1 | 38457 | 44467 | inactive |
| CG15255 (GeneID 34913) | 1 | 67210 | 70987 | inactive |
| OS9 + Hf | 1 | 94967 | 54077 | inactive |
| Atg17 (GeneID 40700) | 1 | 64777 | 52717 | inactive |
| CG31823 (GeneID 326163) | 1 | 63650 | 63497 | inactive |
| regucalcin (GeneID 32165) | 1 | 2.79e5 | 2.29e5 | inactive |
| regucalcin (GeneID 32165) | 2 | 3.61e5 | 3.15e5 | inactive |
| CG13361 (GeneID 31019) | 1 | 61990 | 73590 | inactive |
| inaF-B + inaF-D + inaF-C + 1 more | 1 | 3.87e5 | 3.78e5 | inactive |
| Adss (GeneID 42466) | 1 | 40153 | 31110 | inactive |
| CG9231 (GeneID 40130) | 1 | 20950 | 20073 | inactive |
| knk (GeneID 47137) | 1 | 56677 | 55027 | inactive |
| Or82a (GeneID 318778) | 1 | 52293 | 74527 | inactive |
| CG32264 (GeneID 38438) | 1 | 33607 | 1.29e5 | inactive |
| CG32264 (GeneID 38438) | 2 | 39087 | 45147 | inactive |
| CG32264 (GeneID 38438) | 3 | 2.22e5 | 2.74e5 | inactive |
| otp (GeneID 37364) | 1 | 41307 | 47167 | inactive |
| otp (GeneID 37364) | 2 | 41957 | 44083 | inactive |
| Gip (GeneID 31960) | 1 | 1.66e5 | 2.05e5 | inactive |
| Cog4 (GeneID 34442) | 1 | 84947 | 73300 | inactive |
| hzg (GeneID 39748) | 1 | 79550 | 61307 | inactive |
| gish (GeneID 49701) | 1 | 43810 | 54320 | inactive |
| p38b (GeneID 34780) | 1 | 75243 | 79127 | inactive |
| Sf3b6 (GeneID 38720) | 1 | 78480 | 79627 | inactive |
| yellow-e (GeneID 41653) | 1 | 1.84e5 | 2.14e5 | inactive |
| yellow-e (GeneID 41653) | 2 | 83900 | 88200 | inactive |
| ChT (GeneID 42245) | 1 | 47127 | 50817 | inactive |
| Gen (GeneID 38594) | 1 | 38553 | 37050 | inactive |
